Measurements from the supplement of paper PMC3047530.
This is one part of the list. Repeats are few or missing, and single values can be far off.

test system: Geomyces destructans; assay: growth inhibition relative to DMSO control; higher = stronger growth inhibition; details: 10 µM; 15 °C; incubation time 10 days

SMILES | growth inhibition
COc1cc(-c2coc3cc(O[C@@H]4O[C@H](CO)[C@@H](O)[C@H](O)[C@H]4O)c(OC)c(O)c3c2=O)cc(O)c1OC | -7.36%
OC[C@H]1O[C@@H](Oc2cc(O)cc(/C=C/c3ccc(O)cc3)c2)[C@H](O)[C@@H](O)[C@@H]1O | -6.59%
CC(C)C[C@@H](NC(=O)[C@H](C)NC(=O)CNC(=O)[C@@H](NC=O)C(C)C)C(=O)N[C@@H](C)C(=O)N[C@@H](C(=O)N[C@H](C(=O)N[C@H](C(=O)N[C@@H](Cc1c[nH]c2ccccc12)C(=O)N[C@H](CC(C)C)C(=O)N[C@@H](Cc1c[nH]c2ccccc12)C(=O)N[C@H](CC(C)C)C(=O)N[C@@H](Cc1c[nH]c2ccccc12)C(=O)N[C@H](CC(C)C)C(=O)N[C@@H](Cc1c[nH]c2ccccc12)C(=O)NCCO)C(C)C)C(C)C)C(C)C | -5.91%
O=c1c(O)c(-c2ccc(O)cc2O)oc2cc(O)cc(O)c12 | -1.89%
O=c1c(O)c(-c2ccccc2)oc2cc(O)ccc12 | -10.1%
O=C1OCCN1/N=C/c1ccc([N+](=O)[O-])o1 | 1.16%
NC(=O)c1ccc([N+](=O)[O-])cc1Cl | -10.6%
c1ccc([C@H]2CN3CCSC3=N2)cc1 | -16.2%
CCC(=O)O[C@]1(C(=O)CCl)[C@@H](C)C[C@H]2[C@@H]3CCC4=CC(=O)C=C[C@]4(C)[C@@]3(F)[C@@H](O)C[C@@]21C | -1.58%
O=C1C[C@@H](c2ccc(O)cc2)Oc2cc(O)cc(O)c21 | 1.95%
CC(C)NCC(O)c1ccc2ccccc2c1 (configuration not stated) | -10.2%
CC(=O)O[C@]1(C(C)=O)CC[C@H]2[C@@H]3C[C@H](C)C4=CC(=O)CC[C@]4(C)[C@H]3CC[C@@]21C | 5.74%
CN(C)c1nc(N(C)C)nc(N(C)C)n1 | -2.21%
CC(=O)Oc1ccc2c(c1)CCC1C2CC[C@]2(C)C(=O)CCC12 (some centres not stated) | -9.26%
O=C(Nc1ccccc1)Nc1ccccc1 | -0.0787%
COc1cc([C@@H]2c3cc4c(cc3[C@@H](O[C@@H]3O[C@@H]5CO[C@@H](C)O[C@H]5[C@H](O)[C@H]3O)[C@H]3COC(=O)[C@H]23)OCO4)cc(OC)c1O | -5.26%
CCCNCC(O)COc1ccccc1C(=O)CCc1ccccc1 (configuration not stated) | -10.1%
CS(=O)(=O)CCCCN=C=S | -1.27%
C[C@H]1C[C@@H]2[C@H]([C@@H](O)C[C@@]3(C)[C@H]2CC[C@]3(O)C(=O)CO)[C@@]2(C)C=CC(=O)C=C12 | 1.94%
CC[C@H]1OC(=O)[C@H](C)[C@@H](O[C@H]2C[C@@](C)(OC)[C@@H](O)[C@H](C)O2)[C@H](C)[C@@H](O[C@@H]2O[C@H](C)C[C@H](N(C)C)[C@H]2O)[C@](C)(O)C[C@@H](C)[C@@H]2N[C@@H](COCCOC)O[C@H]([C@H]2C)[C@]1(C)O | -3.25%
CC(C)/C(O)=C1/C(=O)O[C@@H](c2ccoc2)[C@]2(C)C(O)[C@@H](O)[C@@]34OC5(C)OC67CC(C)(C(O)[C@]6(O)[C@@H](O)[C@]3(O5)C12)[C@H](CC(=O)O)[C@]74C (some centres not stated) | -13.3%
CC1(C)CC[C@]2(C(=O)O)CC[C@]3(C)C(=CC[C@@H]4[C@@]5(C)CC[C@H](O)[C@@](C)(CO)[C@@H]5CC[C@]43C)[C@@H]2C1 | 0.283%
COc1ccc(-c2c(OC)c3c(OC)c4c(cc3oc2=O)OC(C)(C)C=C4)cc1 | 10.8%
O=c1cc[nH]c(=S)[nH]1 | 2.53%
CC1Cc2ccccc2N1NC(=O)c1ccc(Cl)c(S(N)(=O)=O)c1 (configuration not stated) | 1.61%
CCC(=O)c1c(O)cc(O)cc1O | -16.5%

Structures above that have nitrogen in an aromatic ring (3):
SMILES | growth inhibition
CC(C)C[C@@H](NC(=O)[C@H](C)NC(=O)CNC(=O)[C@@H](NC=O)C(C)C)C(=O)N[C@@H](C)C(=O)N[C@@H](C(=O)N[C@H](C(=O)N[C@H](C(=O)N[C@@H](Cc1c[nH]c2ccccc12)C(=O)N[C@H](CC(C)C)C(=O)N[C@@H](Cc1c[nH]c2ccccc12)C(=O)N[C@H](CC(C)C)C(=O)N[C@@H](Cc1c[nH]c2ccccc12)C(=O)N[C@H](CC(C)C)C(=O)N[C@@H](Cc1c[nH]c2ccccc12)C(=O)NCCO)C(C)C)C(C)C)C(C)C | -5.91%
CN(C)c1nc(N(C)C)nc(N(C)C)n1 | -2.21%
O=c1cc[nH]c(=S)[nH]1 | 2.53%

(cont.)

SMILES | growth inhibition
CO/N=C(\C(=O)N[C@@H]1C(=O)N2C(C(=O)O)=C(COC(N)=O)CS[C@H]12)c1ccco1 | -30.5%
Nc1ccc(S(=O)(=O)Nc2ccnn2-c2ccccc2)cc1 | -3.02%
CC(=O)O[C@@H]1CC2C(C)(C)C(=O)C3OC3[C@]2(C)C2CC[C@@]3(C)[C@H](c4ccoc4)OC(=O)C4OC43[C@@]21C (some centres not stated) | -2.85%
CC12CCC(CC1)C(C)(C)O2 | 1%
COc1c(O)cccc1O | 2.28%
COC(=O)CC[C@@H](C)[C@H]1CC[C@H]2[C@@H]3[C@H](O)C[C@@H]4C[C@H](O)CC[C@]4(C)[C@H]3C[C@H](O)[C@]12C | -10.6%
Cc1cc(CC(=O)O)n(C)c1C(=O)c1ccc(Cl)cc1 | -25.4%
O=C(O)C1=CCCNC1 | -1.47%
CC(=O)OC1CCC2(C)C(CCC3(C)C2CC=C2C4C(C)C(C)CCC4(C(=O)O)CCC23C)C1(C)C (configuration not stated) | -15.6%
CC1(C)C=CC(=O)[C@@]2(C)C1CC(=O)[C@]1(C)C2CC[C@@]2(C)[C@H](c3ccoc3)OC(=O)C3OC321 (some centres not stated) | -25%
CN(C)C(=O)Nc1ccc(Cl)c(Cl)c1 | -6.83%
CC(C)C[C@@H]1NC(=O)[C@H](CCCN)NC(=O)[C@H](C(C)C)NC(=O)[C@H](Cc2ccc(O)cc2)N[C@@H](CCC(=O)O)C(=O)N[C@@H](CC(N)=O)C(=O)[C@@H](Cc2ccccc2)NC(=O)[C@H](Cc2ccccc2)NC(=O)[C@@H]2CCCN2C(=O)[C@@H](Cc2ccccc2)NC1=O | -19.8%
C[C@H](CCC(=O)O)[C@H]1CC[C@H]2[C@@H]3CC[C@@H]4C[C@H](O)CC[C@]4(C)[C@H]3C[C@H](O)[C@]12C | -6.96%
NC1=NCCN1CC(=O)O | -16.8%
CC1(C)O[C@@H]2C[C@H]3[C@@H]4CCC5=CC(=O)C=C[C@]5(C)[C@@]4(F)[C@@H](O)C[C@]3(C)[C@]2(C(=O)CO)O1 | -15.7%
Cc1cnc(NC(=O)C2=C(O)c3ccccc3S(=O)(=O)N2C)s1 | -10.6%
C[C@@H]1C[C@H]2[C@@H]3CCC4=CC(=O)C=C[C@]4(C)[C@@]3(F)[C@@H](O)C[C@]2(C)[C@@]1(O)C(=O)CO | -8.87%
Cc1nnc(NS(=O)(=O)c2ccc(N)cc2)s1 | -14.2%
CC1CC(OC(=O)C(O)c2ccccc2)CC(C)(C)N1C (configuration not stated) | 4.52%
OC[C@H]1O[C@@H](n2cnc3c(NCc4ccco4)ncnc32)[C@H](O)[C@@H]1O | -15.7%
CC(=O)OCC(OC(C)=O)C(OC(C)=O)C(OC(C)=O)C(OC(C)=O)C(COC(C)=O)OC(C)=O (configuration not stated) | 3.07%
C1CCN2C[C@@H]3C[C@@H](CN4CCCC[C@@H]34)[C@H]2C1 | -10.4%
CC(C(=O)O)c1ccc(N2Cc3ccccc3C2=O)cc1 (configuration not stated) | 1.16%
CO[C@@]12[C@H](COC(N)=O)C3=C(C(=O)C(C)=C(N)C3=O)N1C[C@@H]1N[C@@H]12 | -25.4%
Cc1ccc(Cl)c(Nc2ccccc2C(=O)O)c1Cl | 2.38%
C[C@H]1C[C@H]2[C@@H]3CCC4=CC(=O)C=C[C@]4(C)[C@@]3(F)[C@@H](O)C[C@]2(C)[C@@]1(O)C(=O)CO | -18.3%

Four entries from above, tab-delimited.
SMILES	growth inhibition
CC1Cc2ccccc2N1NC(=O)c1ccc(Cl)c(S(N)(=O)=O)c1 (configuration not stated)	1.61%
CCC(=O)c1c(O)cc(O)cc1O	-16.5%
CO/N=C(\C(=O)N[C@@H]1C(=O)N2C(C(=O)O)=C(COC(N)=O)CS[C@H]12)c1ccco1	-30.5%
Nc1ccc(S(=O)(=O)Nc2ccnn2-c2ccccc2)cc1	-3.02%

Later entries

SMILES | growth inhibition
CC(C)C1=CC2=CC[C@@H]3[C@](C)(CCC[C@@]3(C)C(=O)O)[C@H]2CC1 | -15.3%
CC1(C)C(=O)C=C[C@@]2(C)C1CC(=O)[C@@]1(C)C3=CC(=O)O[C@@H](c4ccoc4)[C@]3(C)CCC12 (some centres not stated) | -7.91%
O=C(O[C@@H]1Cc2c(O)cc(O)cc2O[C@@H]1c1cc(O)c(=O)c2c(O)c(O)cc([C@H]3Oc4cc(O)cc(O)c4C[C@H]3O)c2c1)c1cc(O)c(O)c(O)c1 | -5.74%
C[C@@H]1O[C@@H](O[C@H]2[C@H](O[C@H]3CC[C@@]4(C)[C@@H](CC[C@]5(C)[C@@H]4CC=C4[C@@H]6CC(C)(C)CC[C@]6(C(=O)O[C@@H]6O[C@H](CO[C@@H]7O[C@H](CO)[C@@H](O[C@@H]8O[C@@H](C)[C@H](O)[C@@H](O)[C@H]8O)[C@H](O)[C@H]7O)[C@@H](O)[C@H](O)[C@H]6O)CC[C@]45C)[C@]3(C)CO)OC[C@H](O)[C@@H]2O)[C@H](O)[C@H](O)[C@H]1O | -3.77%
CCOC(=O)CCCCCCCCCCCCC1C=CCC1 (configuration not stated) | -8.59%
CCn1nc(C(=O)O)c(=O)c2cc3c(cc21)OCO3 | -1.52%
Cc1cc(/C=C/c2ccc3cc(N(C)C)ccc3[n+]2C)c(C)n1-c1ccccc1 | -22.8%
CC(=O)OCC1(C)CCC2(C)CCC3(C)C4=CCc5c(cc(OC(C)=O)c(OC(C)=O)c5C)C4(C)CCC3(C)C2C1 (configuration not stated) | -4.61%
Cc1c(Cl)cccc1Nc1ccccc1C(=O)O | -1.58%
CCCSc1ccc2[nH]c(NC(=O)OC)nc2c1 | -2.21%
C[C@@H]1CC[C@H]2C(C)(C)[C@H]3C[C@@]12CC[C@@]3(C)O | -4.62%
CC(=O)C1=C(O)C=C2Oc3c(C(C)=O)c(O)c(C)c(O)c3C2(C)C1=O (stereo in doubt) | -41.4%
CCc1ccc(CCOc2ccc(CC3SC(=O)NC3=O)cc2)nc1 (configuration not stated) | -26.2%
Clc1ccc2c(c1)C(N1CCNCC1)=Nc1ccccc1O2 | -0.774%
CC(C)[C@@H](C)/C=C/[C@@H](C)[C@H]1CC[C@H]2C3=CC=C4C[C@@H](O)CC[C@]4(C)[C@H]3CC[C@]12C | 6.63%
O=C1c2ccccc2C(=O)C1c1ccccc1 | -30.6%
c1ccc(CC2=NCCN2)cc1 | -11.7%
COc1c(O)cc2occ(-c3ccc(O)cc3)c(=O)c2c1O | -0.794%
NCCCCC(=O)O | -7.31%
OCCN1CCN(CCCN2c3ccccc3Sc3ccc(C(F)(F)F)cc32)CC1 | -5.9%
CC(C)(Oc1ccc(CCNC(=O)c2ccc(Cl)cc2)cc1)C(=O)O | -11.5%
CC1=CC(=O)[C@H]2C(C)(C)CCC[C@]2(C)[C@@]1(O)CCc1ccoc1 | 1.81%
COc1cc(/C=C/C=O)cc(OC)c1OC | -6.87%
CC1=C(/C=C/C(C)=C/C=C/C(C)=C/C=C/C=C(C)/C=C/C=C(C)/C=C/C2=C(C)CCCC2(C)C)C(C)(C)CCC1 [beta-CAROTENE] | -7.82%
CC[C@H]1OC(=O)[C@H](C)[C@@H](O[C@H]2C[C@@](C)(OC)[C@@H](O)[C@H](C)O2)[C@H](C)[C@@H](O[C@@H]2O[C@H](C)C[C@H](N(C)C)[C@H]2O)[C@](C)(O)C[C@@H](C)C(=O)[C@H](C)[C@@H](O)[C@]1(C)O | -18.1%
